We go through three substances from publication PMC6896067.

Chains of the proteins cited; added tags and fusions are not shown.
UniProt P51532: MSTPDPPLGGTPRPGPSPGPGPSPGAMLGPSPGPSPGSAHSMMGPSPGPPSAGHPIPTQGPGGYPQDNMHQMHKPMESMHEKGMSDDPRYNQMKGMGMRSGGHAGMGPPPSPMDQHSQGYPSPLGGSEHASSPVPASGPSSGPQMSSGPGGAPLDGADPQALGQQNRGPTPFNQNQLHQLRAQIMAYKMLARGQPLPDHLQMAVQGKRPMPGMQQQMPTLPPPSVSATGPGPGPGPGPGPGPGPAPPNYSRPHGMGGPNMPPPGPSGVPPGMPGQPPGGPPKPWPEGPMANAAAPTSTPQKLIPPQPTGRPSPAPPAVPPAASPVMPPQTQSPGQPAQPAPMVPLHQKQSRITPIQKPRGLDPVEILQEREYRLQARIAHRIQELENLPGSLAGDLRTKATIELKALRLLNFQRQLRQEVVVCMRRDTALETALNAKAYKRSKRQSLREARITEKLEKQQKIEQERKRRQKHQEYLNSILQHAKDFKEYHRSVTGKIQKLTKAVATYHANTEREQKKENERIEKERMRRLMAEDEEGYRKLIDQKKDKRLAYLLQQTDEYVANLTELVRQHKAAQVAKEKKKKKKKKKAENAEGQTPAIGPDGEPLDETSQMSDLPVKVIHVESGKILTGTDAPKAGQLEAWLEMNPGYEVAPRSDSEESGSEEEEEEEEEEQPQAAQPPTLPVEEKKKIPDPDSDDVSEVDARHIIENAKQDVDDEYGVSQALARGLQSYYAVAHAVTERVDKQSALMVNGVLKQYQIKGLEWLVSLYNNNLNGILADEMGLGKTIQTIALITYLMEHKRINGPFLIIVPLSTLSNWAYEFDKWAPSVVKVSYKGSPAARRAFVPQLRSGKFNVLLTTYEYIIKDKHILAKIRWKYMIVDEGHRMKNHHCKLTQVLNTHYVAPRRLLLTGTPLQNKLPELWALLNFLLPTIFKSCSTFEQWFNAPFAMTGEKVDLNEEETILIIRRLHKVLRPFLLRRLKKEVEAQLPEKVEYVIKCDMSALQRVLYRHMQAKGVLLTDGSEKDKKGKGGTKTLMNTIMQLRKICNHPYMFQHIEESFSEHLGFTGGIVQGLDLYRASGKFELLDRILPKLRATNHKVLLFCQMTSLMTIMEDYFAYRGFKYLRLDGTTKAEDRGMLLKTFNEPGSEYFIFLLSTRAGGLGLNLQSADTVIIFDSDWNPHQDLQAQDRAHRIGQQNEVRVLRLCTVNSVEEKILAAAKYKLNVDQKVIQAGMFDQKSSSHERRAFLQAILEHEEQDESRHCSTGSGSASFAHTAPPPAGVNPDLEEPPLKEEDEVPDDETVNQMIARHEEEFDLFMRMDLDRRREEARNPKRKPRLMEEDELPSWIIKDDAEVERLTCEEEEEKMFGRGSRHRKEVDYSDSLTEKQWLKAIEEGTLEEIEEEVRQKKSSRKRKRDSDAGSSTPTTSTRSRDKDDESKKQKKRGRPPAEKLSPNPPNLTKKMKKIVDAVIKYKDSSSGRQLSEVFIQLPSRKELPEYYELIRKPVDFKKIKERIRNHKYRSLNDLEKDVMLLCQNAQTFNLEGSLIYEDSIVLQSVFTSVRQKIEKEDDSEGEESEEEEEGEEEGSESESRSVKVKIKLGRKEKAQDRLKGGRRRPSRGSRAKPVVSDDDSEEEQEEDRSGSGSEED
UniProt Q9H8M2: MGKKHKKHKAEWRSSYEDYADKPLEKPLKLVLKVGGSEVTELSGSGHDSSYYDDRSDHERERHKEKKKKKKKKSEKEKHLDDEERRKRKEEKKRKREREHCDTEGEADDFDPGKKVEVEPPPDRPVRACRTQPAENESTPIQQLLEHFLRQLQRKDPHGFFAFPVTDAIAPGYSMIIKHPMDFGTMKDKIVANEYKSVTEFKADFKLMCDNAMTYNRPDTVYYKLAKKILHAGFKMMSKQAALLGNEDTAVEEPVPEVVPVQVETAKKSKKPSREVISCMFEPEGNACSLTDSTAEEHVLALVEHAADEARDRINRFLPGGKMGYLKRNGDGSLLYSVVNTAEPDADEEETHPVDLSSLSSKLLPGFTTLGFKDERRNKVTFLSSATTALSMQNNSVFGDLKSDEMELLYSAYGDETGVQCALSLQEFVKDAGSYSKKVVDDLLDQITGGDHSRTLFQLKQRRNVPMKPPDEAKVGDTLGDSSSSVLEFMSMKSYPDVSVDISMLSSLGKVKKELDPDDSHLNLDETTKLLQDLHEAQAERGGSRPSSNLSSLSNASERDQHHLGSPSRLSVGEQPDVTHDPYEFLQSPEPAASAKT

No constants are given. Whether binding was seen depends on the method and setting. Binding seen in cells or lysates may run through a third protein. Some binding calls cover weakened binding; strength is not graded here.

In test [1] the target is BRG1, ATPase subunit of the SWI-SNF chromatin-remodeling complex (human (endogenous in MCF-10A)) (UniProt P51532). Put plainly: co-IP; 1 ug anti-BRG1 (Santa Cruz sc-17796) or control IgG with ~1 mg nuclear extract overnight at 4 °C, Protein G Sepharose; washes with Tris pH 7.4, 300 mM NaCl, 0.5 % NP-40; immunoblot for BRG1 and BRD9; MCF-10A wild type and mutant cells, or DKI cells transduced with lenti-BRD9.

The target in test [2] is bromodomain-containing protein 9 (BRD9) (human (endogenous in MCF-10A)) (UniProt Q9H8M2). Put plainly: co-IP; precipitation of endogenous BRD9, BRG1 detected (Figure S9); conditions not shown.

Regarding “BRD9 overexpressed from lenti-BRD9-Puro (from UniProt Q9H8M2 1-597)”, the binding result in test [1] is “binds”.
On to “BRG1, ATPase subunit of the SWI-SNF chromatin-remodeling complex (from UniProt P51532 1-1647)”, for which the binding result in test [2] was “binds”.
For the substance “bromodomain-containing protein 9 (BRD9) (from UniProt Q9H8M2 1-597)”, the binding entry in test [1] was “binds”.
